Measured values published in PubChem BioAssay AID248 (DTP/NCI, 2004).
The list is a part of this screen's results and no random one: it is rich in T/C values a quarter to a half above the control, in often repeated tests (any T/C) and in doses without a T/C. Other doses and runs of a compound stand elsewhere. T/C is the treated group as % of the vehicle group. Some entries give survivors of the animals treated and no T/C: the source files T/C as zero there, which appears to mark a toxic dose or a test without result, not a measured value. Some doses without a T/C left all or most animals alive at the check, yet need not have been tolerated: survival well below the control is almost never listed, so the zero probably covers shortened survival too. Counts of survivors are from the toxicity check (mostly the fifth day) where no day follows; animals may have died later. Schedules are NCI's codes, taken here to give the interval after Q, in days (D) or hours (H), and the number of doses after X. For survival time, the PubChem record calls one and a half times the control and up active, and a quarter to a half above the control has no call in these data; cut-offs in other NCI protocols can differ. Brackets with × count equal records among those shown. Some doses were run more than once; the results are listed from low to high. Some T/C values are followed by the survivors on the day toxicity was checked, most often the fifth; where none is given, no animal had died by that day.

Test system: L1210 leukemia ip in BDF1 mice, survival T/C
Test: NCI In Vivo Anticancer Drug Screen. Data for tumor model L1210 Leukemia (intraperitoneal) in B6D2F1 (BDF1) mice
Settings: higher T/C = longer survival
[1] = T/C endpoint: mean survival time, dose: 300.0 mg/kg/injection, schedule: Q01DX001 (ip), vehicle: saline
[2] = T/C endpoint: mean survival time, dose: 100.0 mg/kg/injection, schedule: Q01DX001 (ip), vehicle: saline
[3] = T/C endpoint: mean survival time, dose: 200.0 mg/kg/injection, schedule: Q01DX001 (ip), vehicle: saline
[4] = T/C endpoint: mean survival time, dose: 400.0 mg/kg/injection, schedule: Q01DX001 (ip), vehicle: saline
[5] = T/C endpoint: mean survival time, dose: 100.0 mg/kg/injection, schedule: Q04DX002 (ip), vehicle: Klucel (hydroxypropylcellulose) (HPC)
[6] = T/C endpoint: mean survival time, dose: 200.0 mg/kg/injection, schedule: Q04DX002 (ip), vehicle: Klucel (hydroxypropylcellulose) (HPC)
[7] = T/C endpoint: mean survival time, dose: 400.0 mg/kg/injection, schedule: Q04DX002 (ip), vehicle: Klucel (hydroxypropylcellulose) (HPC)

## OC(CCCNc1ccccc1)CCCNc1ccccc1
[1]
  survivor count: 1 of 6

## CC(=O)OC1CCC(NC(=O)N(CCCl)N=O)CC1 (stereo not given)
T/C endpoint: mean survival time, dose: 7.5 mg/kg/injection, schedule: Q01DX001 (ip), vehicle: other
  T/C: 138 % of control
T/C endpoint: mean survival time, dose: 125.0 mg/kg/injection, schedule: Q01DX001 (ip), vehicle: other
  survivor count: 8 of 10
T/C endpoint: mean survival time, dose: 250.0 mg/kg/injection, schedule: Q01DX001 (ip), vehicle: other
  survivor count: 4 of 10
T/C endpoint: mean survival time, dose: 375.0 mg/kg/injection, schedule: Q01DX001 (ip), vehicle: other
  survivor count: 0 of 10
T/C endpoint: mean survival time, dose: 500.0 mg/kg/injection, schedule: Q01DX001 (ip), vehicle: other
  survivor count: 0 of 10

## CCOC(CNC(=O)c1cccc(S(=O)(=O)F)c1)OCC
T/C endpoint: mean survival time, dose: 400.0 mg/kg/injection, schedule: Q04DX003 (ip), vehicle: saline + alcohol
  survivor count: 0 of 6

## [Cl][Fe]([Cl])[Cl]
T/C endpoint: mean survival time, dose: 50.0 mg/kg/injection, schedule: Q01DX009 (ip), vehicle: saline with Tween-80
  survivor count: 6 of 6
T/C endpoint: mean survival time, dose: 100.0 mg/kg/injection, schedule: Q01DX009 (ip), vehicle: saline with Tween-80
  survivor count: 5 of 6
T/C endpoint: mean survival time, dose: 200.0 mg/kg/injection, schedule: Q01DX009 (ip), vehicle: saline with Tween-80
  survivor count: 3 of 6
T/C endpoint: mean survival time, dose: 400.0 mg/kg/injection, schedule: Q01DX009 (ip), vehicle: saline with Tween-80
  survivor count: 0 of 6

## C/C(N)=C\C#N
[2]
  survivor count: 1 of 4
[3]
  survivor count: 2 of 4
[4]
  survivor count: 0 of 4

## C=CCN(CC=C)P(N(CC=C)CC=C)N(CC=C)CC=C
T/C endpoint: mean survival time, dose: 300.0 mg/kg/injection, schedule: Q01DX009 (ip), vehicle: saline
  survivor count: 5 of 6

## COc1cc(CNC2CCCCC2)ccc1O
[1]
  survivor count: 0 of 6

## C[C@]12CC[C@H]3[C@@H](CC[C@]4(O)C[C@@H](O)CC[C@]34C=O)[C@@]1(O)CC[C@@H]2c1ccc(=O)oc1
[2]
  survivor count: 0 of 4
[3]
  survivor count: 0 of 4
[4]
  survivor count: 0 of 4

## CC(C)N=Cc1ccccc1O.CC(C)N=Cc1ccccc1O.[Co]
T/C endpoint: mean survival time, dose: 400.0 mg/kg/injection, schedule: Q01DX009 (ip), vehicle: saline sonified
  survivor count: 2 of 6

## CSC(=NCc1ccccc1)NC1CCCCC1
[5]
  survivor count: 0 of 3
[6]
  survivor count: 0 of 3
[7]
  survivor count: 0 of 3

## [Cl][Pb]([Cl])([c]1ccccc1)[c]1ccccc1
[5]
  survivor count: 3 of 3
[6]
  survivor count: 3 of 3
[7]
  survivor count: 2 of 3

## COc1ccc(C(=O)/C(Br)=C/C(=O)O)cc1
T/C endpoint: mean survival time, dose: 75.0 mg/kg/injection, schedule: Q01DX009 (ip), vehicle: saline
  survivor count: 0 of 6
T/C endpoint: mean survival time, dose: 100.0 mg/kg/injection, schedule: Q01DX009 (ip), vehicle: saline
  survivor count: 0 of 6
T/C endpoint: mean survival time, dose: 100.0 mg/kg/injection, schedule: Q04DX003 (ip), vehicle: saline
  survivor count: 0 of 6
T/C endpoint: mean survival time, dose: 115.0 mg/kg/injection, schedule: Q01DX009 (ip), vehicle: saline
  survivor count: 0 of 6
T/C endpoint: mean survival time, dose: 170.0 mg/kg/injection, schedule: Q01DX009 (ip), vehicle: saline
  survivor count: 0 of 6
T/C endpoint: mean survival time, dose: 200.0 mg/kg/injection, schedule: Q04DX002 (ip), vehicle: saline
  survivor count: 0 of 3
T/C endpoint: mean survival time, dose: 200.0 mg/kg/injection, schedule: Q04DX003 (ip), vehicle: saline
  survivor count: 0 of 6
T/C endpoint: mean survival time, dose: 400.0 mg/kg/injection, schedule: Q04DX002 (ip), vehicle: saline
  survivor count: 0 of 3
T/C endpoint: mean survival time, dose: 400.0 mg/kg/injection, schedule: Q04DX003 (ip), vehicle: saline
  survivor count: 0 of 6
T/C endpoint: median survival time, dose: 6.3 mg/kg/injection, schedule: Q01DX015 (ip), vehicle: saline, evaluated on day 7
  T/C: 96 % of control (2×)
T/C endpoint: median survival time, dose: 6.3 mg/kg/injection, schedule: Q01DX015 (ip), vehicle: saline, evaluated on day 34
  T/C: 96 % of control
T/C endpoint: median survival time, dose: 6.3 mg/kg/injection, schedule: Q01DX015 (ip), vehicle: saline, evaluated on day 63
  T/C: 96 % of control [7 of 8 alive]
T/C endpoint: median survival time, dose: 6.3 mg/kg/injection, schedule: Q07DX003 (ip), vehicle: saline, evaluated on day 7
  T/C: 94 and 98 % of control
T/C endpoint: median survival time, dose: 6.3 mg/kg/injection, schedule: Q07DX003 (ip), vehicle: saline, evaluated on day 34
  T/C: 94 % of control [6 of 8 alive]
T/C endpoint: median survival time, dose: 6.3 mg/kg/injection, schedule: Q07DX003 (ip), vehicle: saline, evaluated on day 63
  T/C: 98 % of control
T/C endpoint: median survival time, dose: 12.5 mg/kg/injection, schedule: Q01DX015 (ip), vehicle: saline, evaluated on day 7
  T/C: 97 and 110 % of control
T/C endpoint: median survival time, dose: 12.5 mg/kg/injection, schedule: Q01DX015 (ip), vehicle: saline, evaluated on day 34
  T/C: 97 % of control
T/C endpoint: median survival time, dose: 12.5 mg/kg/injection, schedule: Q01DX015 (ip), vehicle: saline, evaluated on day 63
  T/C: 110 % of control
T/C endpoint: median survival time, dose: 12.5 mg/kg/injection, schedule: Q07DX003 (ip), vehicle: saline, evaluated on day 7
  T/C: 99 and 103 % of control
T/C endpoint: median survival time, dose: 12.5 mg/kg/injection, schedule: Q07DX003 (ip), vehicle: saline, evaluated on day 34
  T/C: 103 % of control
T/C endpoint: median survival time, dose: 12.5 mg/kg/injection, schedule: Q07DX003 (ip), vehicle: saline, evaluated on day 63
  T/C: 100 % of control
T/C endpoint: median survival time, dose: 25.0 mg/kg/injection, schedule: Q01DX015 (ip), vehicle: saline, evaluated on day 7
  T/C: 101 and 113 % of control
T/C endpoint: median survival time, dose: 25.0 mg/kg/injection, schedule: Q01DX015 (ip), vehicle: saline, evaluated on day 34
  T/C: 101 % of control [7 of 8 alive]
T/C endpoint: median survival time, dose: 25.0 mg/kg/injection, schedule: Q01DX015 (ip), vehicle: saline, evaluated on day 63
  T/C: 113 % of control
T/C endpoint: median survival time, dose: 25.0 mg/kg/injection, schedule: Q07DX003 (ip), vehicle: saline, evaluated on day 7
  T/C: 97 % of control (2×)
T/C endpoint: median survival time, dose: 25.0 mg/kg/injection, schedule: Q07DX003 (ip), vehicle: saline, evaluated on day 34
  T/C: 97 % of control
T/C endpoint: median survival time, dose: 25.0 mg/kg/injection, schedule: Q07DX003 (ip), vehicle: saline, evaluated on day 63
  T/C: 97 % of control [7 of 8 alive]
T/C endpoint: median survival time, dose: 50.0 mg/kg/injection, schedule: Q01DX015 (ip), vehicle: saline, evaluated on day 7
  T/C: 101 % of control (2×)
T/C endpoint: median survival time, dose: 50.0 mg/kg/injection, schedule: Q01DX015 (ip), vehicle: saline, evaluated on day 34
  T/C: 101 % of control [7 of 8 alive]
T/C endpoint: median survival time, dose: 50.0 mg/kg/injection, schedule: Q01DX015 (ip), vehicle: saline, evaluated on day 63
  T/C: 101 % of control
T/C endpoint: median survival time, dose: 50.0 mg/kg/injection, schedule: Q07DX003 (ip), vehicle: saline, evaluated on day 7
  T/C: 97 and 102 % of control
T/C endpoint: median survival time, dose: 50.0 mg/kg/injection, schedule: Q07DX003 (ip), vehicle: saline, evaluated on day 34
  T/C: 97 % of control
T/C endpoint: median survival time, dose: 50.0 mg/kg/injection, schedule: Q07DX003 (ip), vehicle: saline, evaluated on day 63
  T/C: 102 % of control [6 of 8 alive]
T/C endpoint: median survival time, dose: 100.0 mg/kg/injection, schedule: Q01DX015 (ip), vehicle: saline, evaluated on day 7
  T/C: 80 and 96 % of control
T/C endpoint: median survival time, dose: 100.0 mg/kg/injection, schedule: Q01DX015 (ip), vehicle: saline, evaluated on day 63
  T/C: 96 % of control [6 of 8 alive]
T/C endpoint: median survival time, dose: 100.0 mg/kg/injection, schedule: Q01DX015 (ip), vehicle: saline
  survivor count: 4 of 8
T/C endpoint: median survival time, dose: 100.0 mg/kg/injection, schedule: Q07DX003 (ip), vehicle: saline, evaluated on day 7
  T/C: 83 and 98 % of control
T/C endpoint: median survival time, dose: 100.0 mg/kg/injection, schedule: Q07DX003 (ip), vehicle: saline, evaluated on day 63
  T/C: 98 % of control [6 of 8 alive]
T/C endpoint: median survival time, dose: 100.0 mg/kg/injection, schedule: Q07DX003 (ip), vehicle: saline
  survivor count: 6 of 8
